{
  "source": "paper PMC7714431",
  "key": {"[1]": {"test_system": "RNA polymerase II (purified, for individual RNA bandshifts) (Homo sapiens)", "experiment": "EMSA", "details": "10 mM Mg2+, 10 uM Zn2+; EMSA: 10-100 nM Pol II, 0.2 nM RNA, 10 mM HEPES, 2 mM Tris pH 7.25, 1 mM KCl, 10 mM MgCl2, 10 uM ZnCl2, 10 mM DTT, 5% glycerol, 1 mg/ml BSA, RT 30 min, 4% native gel; native protein; label: 32P body-label (GTP)"}, "[2]": {"test_system": "RNA polymerase II (Jena Biosciences) (Homo sapiens)", "experiment": "competition filter binding", "details": "0-100 nM B2 partially outcompetes 10 nM labeled cycle 7 RNA pool, 5 nM Pol II; EMSA: 10-100 nM Pol II, 0.2 nM RNA, 10 mM HEPES, 2 mM Tris pH 7.25, 1 mM KCl, 10 mM MgCl2, 10 uM ZnCl2, 10 mM DTT, 5% glycerol, 1 mg/ml BSA, RT 30 min, 4% native gel; commercial protein; label: unlabeled in filter competition"}},
  "note": "The exact form of at least one protein or probe is not confirmed. For some assays here: At least one verdict was read from the data and is not stated in words by the source.",
  "data": [
    {"sequence": "UCAUGUAAGGCUAGACAGAAGAAUUCUCAGUAACUUCCUUGUGUUGUGUGUAUUCAACUCACAGAGUUGAACGUUCCUUU [Alpha Sat RAP]", "values": [
      {"measurement": "binding result", "setting": "[1]", "value": "binds"}
    ]},
    {"sequence": "GGGCUGGUGAGAUGGCUCAGUGGGUAAGAGCACCCGACUGCUCUUCCGAAGGUCAGGAGUUCAAAUCCCAGCAACCACAUGGUGGCUCACAACCAUCCGUAACGAGAUCUGAUUCCCUCUUCUGGAGUGUCUGAAGACAGCUACAGUGUACUUACAUAUAAUAAAUAAAUAAAUCUUU [B2 RNA]", "values": [
      {"measurement": "binding result", "setting": "[2]", "value": "binds"}
    ]},
    {"sequence": "CUUGUCUAGGCUCUGCCUACAGGGGGCUUGUGACAUAUCUCUGCACUGAUCACCCAGGUGAUAUAACUCUUCUCUAGGAUCUGCCUACAG [Beta Sat RAP]", "values": [
      {"measurement": "binding result", "setting": "[1]", "value": "binds"}
    ]},
    {"sequence": "GAUUCCAUUCGAUGAUGAUUGCAUUCGAAUCCAUGGAUUAUUCCAUUCCAUUCCAUUAGAUGAUUCCAUUCGAGUCCAUUCGAUGAUUCUCUUCGAUUCCAUUCGAUAAUUCCGUUUG [HSATII RAP]", "values": [
      {"measurement": "binding result", "setting": "[1]", "value": "binds"}
    ]},
    {"sequence": "AUUCGAUGAUUCCAUUCGAUUCCAUUCGCUGAUUCCUUUUGAUUCCAUUCGAUGAUCAUUCCAUUCAAUUCCAUUCAAUGAUUUCAUUUGAUUCCAAUCGAUGAUGAUUCCAUUCAAGGCCAUUUGAUGAUUCCAUUUGAUUCCAUUCGAUGGUGAUUCCAUCCAAUGCCAUUGAUGAUUCAUUCGAUUUCAUUCAAUGAUGAUUUCAUUCUAUUCCAUUCGAUGAUUCUAUUUGAUUCCAUUUGA [HSATIII RAP]", "values": [
      {"measurement": "binding result", "setting": "[1]", "value": "binds"}
    ]}
  ]
}
